At least one peptide structure holds a part that was inferred or is arguable (an end, a ring closure or a residue). Where no end group is shown, it is not given here.
Key:
AI4 CTL [1] = test: 51Cr-release cytotoxicity assay, AI4 CTL against peptide-pulsed RMA-S target cells; assay type: cell-based, mouse; conditions: at all concentrations tested (as low as 0.1 nM)
Procedure: Cytotoxicity assays for screening of HPLC fractions and peptide libraries. AI4 CTL were generated by culturing splenocytes from NOD.AI4αβTg mice with IFN-γ-treated NIT-1 cells and 12.5 U/ml IL-2 as described (DiLorenzo et al., 2002). NY8.3 CTL were generated by culturing splenocytes from 8.3-NOD mice with mitomycin C-treated NOD splenocytes pulsed with 10 nM NRP-A7 peptide as described (DiLorenzo et al., 2002). CTL were used in 16 h ^51Cr-release cytotoxicity assays to test for recognition of peptide-pulsed target cells at an E:T ratio of 40:1 as described (DiLorenzo et al., 2002). TAP-deficient cell lines RMA-S, RMA-S/K^d, T2, and T2-K^d were used as targets. Synthetic peptides or peptide library mixes were used at concentrations indicated in the figures, and 1.6×10^9 NIT-1 cell equivalents of peptide were used for HPLC fraction screening assays.
Cytotoxicity Assay. AI4 CTL were generated by culturing splenocytes from NOD.AI4αβ Tg mice with IFN-γ-treated NIT-1β cells (Hamaguchi et al., 1991) and IL-2 as described (DiLorenzo et al., 2002). CTL were used in 16 h ^51Cr-release cytotoxicity assays to test for recognition of peptide-pulsed target cells at an effector to target ratio of 40:1 as described (DiLorenzo et al., 2002). TAP-deficient RMA-S cells (Kerre et al., 1986) were used as targets.

[2] = system: T cells cultured from NOD islets; test: IFN-γ ELISPOT of T cells cultured from NOD islets with peptide-pulsed APC; assay type: cell-based, mouse; conditions: 1 μM peptide, T cells from pooled islets of 11-week-old NOD mice, 40 h
Procedure: ELISPOT assay. ELISPOT plates (MAHA S45 10; Millipore, Billerica, Mass.) were precoated with anti-murine IFN-γ Ab (R4-6A2; BD Biosciences Pharmingen, San Diego, Calif.) and blocked with 1% BSA (Fraction V, Sigma-Aldrich, St. Louis, Mo.) in PBS. APC (Mitomycin C-treated NOD splenocytes) were added at 2×10^4 cells/well and pulsed for 1 h with 1 μM of each peptide (MimA2, NRP-V7, INS-19, INS BC, GAD65206, GAD65546). Cultured islet T cells were added at 2×10^4 cells/well and plates were incubated at 37° C. for 40 h. IFN-γ secretion was detected with a second, biotinylated anti-murine IFN-γ Ab (XMG1.2; BD Biosciences Pharmingen, San Diego, Calif.). Spots were developed using streptavidin-alkaline phosphatase (Zymed Laboratories, Inc., South San Francisco, Calif.) and 5-bromo-4-chloro-3-indolyl-phosphate/nitroblue tetrazolium chloride substrate (Sigma-Aldrich, St. Louis, Mo.).
IFN-γ ELISPOT. ELISPOT plates (MAHA S45 10; Millipore) were coated with anti-murine IFN-γ Ab (R4-6A2; BD Biosciences Pharmingen) and blocked with 1% BSA (Sigma-Aldrich) in PBS. APC (Mitomycin C-treated NOD splenocytes) were added at 2×10^4 cells/well and pulsed with 1 μM peptide. Cultured islet T cells were added at 2×10^4 cells/well and plates were incubated at 37° C. for 40 h. Secreted IFN-γ was detected with a second, biotinylated anti-murine IFN-γ Ab (XMG1.2; BD Biosciences Pharmingen). […]

H-2D^b = target: T1, H-2D^b (Mus musculus, UniProt P01899); test: H-2D^b stabilization assay on RMA-S cells; assay type: cell-based; conditions: compared with original Mim and other alanine-substituted peptides
T1 construct: engineered to express H-2K^d in addition to the endogenous H-2K^b and H-2D^b; endogenous in cells; host or cells: RMA-S (TAP-deficient cell line)
T1 sequence (P01899 25-362): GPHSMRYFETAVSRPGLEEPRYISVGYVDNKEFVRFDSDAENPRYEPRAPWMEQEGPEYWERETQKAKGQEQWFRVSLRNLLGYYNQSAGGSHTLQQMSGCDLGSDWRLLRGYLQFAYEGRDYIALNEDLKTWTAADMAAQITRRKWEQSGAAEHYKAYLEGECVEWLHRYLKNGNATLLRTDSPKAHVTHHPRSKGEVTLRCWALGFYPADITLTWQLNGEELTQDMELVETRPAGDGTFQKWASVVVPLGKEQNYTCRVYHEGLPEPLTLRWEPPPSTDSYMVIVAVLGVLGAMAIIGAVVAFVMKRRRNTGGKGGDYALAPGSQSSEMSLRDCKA
T1 sequence (P01887 21-119 partner): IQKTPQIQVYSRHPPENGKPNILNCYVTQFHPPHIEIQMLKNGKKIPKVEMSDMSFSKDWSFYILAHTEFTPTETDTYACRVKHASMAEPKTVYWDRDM

AI4 T cells = test: Cytotoxicity assay using intact islets as targets; assay type: cell-based, mouse; conditions: NOD.H2^nbl and NOD.H2^b islets pulsed with peptide, E:T ratio of 50
AI4 CTL [3] = test: 51Cr-release cytotoxicity assay, AI4 CTL against peptide-pulsed T2-K^d target cells; assay type: cell-based, mouse; conditions: data not shown

Row | Sequence | AI4 lysis response (AI4 CTL [1]) | IFN-γ spots in response to peptide [2] | ability to stabilize / bind H-2D^b (H-2D^b) | ability to stabilize / bind H-2D^b (H-2D^b; listed as A2) | AI4 T cell killing of islet β cells in the presence of only H-2D^b, mimotope peptide added (AI4 T cells) | AI4 lysis of peptide-pulsed T2-K^d cells (AI4 CTL [3])
1 | YAIENYLEL [MimA2, YAIENYLEL] | near maximal lysis response | detectable | far superior binding | much greater ability to stabilize H-2D^b | – | –
2 | YFIENYLEL [Mim, YFIENYLEL] | – | – | – | – | efficiently kill | did not lyse

Source: patent publication US8318670B2, “Antigens targeted by pathogenic AI4 T cells in type 1 diabetes and uses thereof” (Albert Einstein College of Medicine of Yeshiva University, priority 2004, dated 2012)
